# Test results reported in paper PMC5996148.
# This is one part of the list.
# How the values were obtained:
# Assay in all cases: protein microarray (ProtoArray v5.0), streptavidin-Alexa Fluor 647
# Conditions in all cases: 3'-biotin; 20 mM Tris (pH 7.5), 5 mM MgCl2, 100 mM KCl, 0.1% Tween-20, A/T-rich and random oligonucleotide blockers; temperature not stated; high values mean tight binding
# PDXDC1 (human) = tested on: PDXDC1 (human)
# PDXK (human) = tested on: PDXK (human)
# PDYN (human) = tested on: PDYN (human)
# [1] = tested on: PDZ and LIM domain protein 3 (human)
# [2] = tested on: PDZ and LIM domain protein 4 (human)
# [3] = tested on: PDZ domain-containing protein GIPC1 (human)
# PDZD11 (human) = tested on: PDZD11 (human)
# PDZK1 (human) = tested on: PDZK1 (human)
# [4] = tested on: PDZK1-interacting protein 1 (human)
# PDZK1IP1 (human) = tested on: PDZK1IP1 (human)
sequence,measurement,setting,value
GGGAGGCTGAGGCAGG [G4-1 biotinylated (PQS2)],binding signal,PDXDC1 (human),-0.329 z-score
same,binding signal,PDXK (human),-0.296 z-score
same,binding signal,PDYN (human),-0.33 z-score
same,binding signal,[1],-0.346 z-score
same,binding signal,[2],-0.322 z-score
same,binding signal,[3],-0.315 z-score
same,binding signal,PDZD11 (human),-0.33 z-score
same,binding signal,PDZK1 (human),-0.318 z-score
same,binding signal,[4],-0.326 z-score
same,binding signal,PDZK1IP1 (human),-0.317 z-score
